# Literature values in patent US20240180872A1, “METHODS AND COMPOUNDS OF CANNABIDIOL, MELATONIN AND AKBA FOR TREATING PANCREATIC CANCER” (priority 2021, published 2024).
# Where two headings read alike, the source gives them in different places.
# Settings: cited from earlier work
compound,measurement,setting,value
"COc1ccc2[nH]cc(CCNC(C)=O)c2c1 [MLT, N-[2-(5-methoxy-1H-indol-3-yl)ethyl]acetamide]",solubility,petroleum ether,very slightly soluble
same,solubility,"water, ethanol, benzene, chloroform, methanol, DMSO, toluene, and dilute aqueous acid",soluble
